# According to PubChem BioAssay (NCATS):
# Amino acid sequences for entries named in this document (tags omitted). A change or cut given only in a name is not applied to a line headed by its entry.
# UniProt P54132: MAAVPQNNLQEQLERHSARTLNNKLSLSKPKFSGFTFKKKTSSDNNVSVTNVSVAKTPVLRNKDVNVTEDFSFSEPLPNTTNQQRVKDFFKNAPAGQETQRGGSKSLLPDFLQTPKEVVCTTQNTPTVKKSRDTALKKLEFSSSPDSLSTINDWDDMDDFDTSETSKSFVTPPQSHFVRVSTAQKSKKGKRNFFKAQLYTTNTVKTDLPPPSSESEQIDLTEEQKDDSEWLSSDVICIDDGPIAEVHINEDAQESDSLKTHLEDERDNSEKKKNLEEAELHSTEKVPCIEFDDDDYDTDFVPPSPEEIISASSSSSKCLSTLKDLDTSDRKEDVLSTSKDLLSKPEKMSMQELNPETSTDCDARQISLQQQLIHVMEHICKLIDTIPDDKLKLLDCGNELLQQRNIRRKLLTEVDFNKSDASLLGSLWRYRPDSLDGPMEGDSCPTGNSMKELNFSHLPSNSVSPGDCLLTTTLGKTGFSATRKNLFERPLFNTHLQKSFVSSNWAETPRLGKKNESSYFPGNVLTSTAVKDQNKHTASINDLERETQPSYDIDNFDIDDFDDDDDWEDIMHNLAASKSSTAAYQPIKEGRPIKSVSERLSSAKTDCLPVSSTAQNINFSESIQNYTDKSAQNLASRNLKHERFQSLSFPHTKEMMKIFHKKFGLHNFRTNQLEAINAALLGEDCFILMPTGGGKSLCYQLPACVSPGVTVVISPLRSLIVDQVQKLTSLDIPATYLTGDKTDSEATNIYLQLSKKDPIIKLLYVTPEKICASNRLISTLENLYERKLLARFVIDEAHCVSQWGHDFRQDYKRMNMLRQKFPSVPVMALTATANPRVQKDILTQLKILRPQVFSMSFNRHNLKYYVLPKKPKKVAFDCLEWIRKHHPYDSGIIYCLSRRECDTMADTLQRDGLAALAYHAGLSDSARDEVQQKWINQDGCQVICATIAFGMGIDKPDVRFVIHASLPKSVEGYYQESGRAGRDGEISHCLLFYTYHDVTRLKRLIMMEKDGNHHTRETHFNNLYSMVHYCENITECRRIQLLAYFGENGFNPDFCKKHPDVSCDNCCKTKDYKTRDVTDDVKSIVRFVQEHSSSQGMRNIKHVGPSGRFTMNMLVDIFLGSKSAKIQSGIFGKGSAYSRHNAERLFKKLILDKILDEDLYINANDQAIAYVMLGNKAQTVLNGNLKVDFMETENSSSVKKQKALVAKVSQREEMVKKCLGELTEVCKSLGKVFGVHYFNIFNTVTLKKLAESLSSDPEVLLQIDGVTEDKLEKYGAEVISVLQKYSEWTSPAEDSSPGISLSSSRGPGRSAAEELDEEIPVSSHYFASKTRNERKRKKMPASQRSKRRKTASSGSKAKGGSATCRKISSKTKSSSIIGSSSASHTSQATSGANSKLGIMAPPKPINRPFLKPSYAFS
# UniProt O15648: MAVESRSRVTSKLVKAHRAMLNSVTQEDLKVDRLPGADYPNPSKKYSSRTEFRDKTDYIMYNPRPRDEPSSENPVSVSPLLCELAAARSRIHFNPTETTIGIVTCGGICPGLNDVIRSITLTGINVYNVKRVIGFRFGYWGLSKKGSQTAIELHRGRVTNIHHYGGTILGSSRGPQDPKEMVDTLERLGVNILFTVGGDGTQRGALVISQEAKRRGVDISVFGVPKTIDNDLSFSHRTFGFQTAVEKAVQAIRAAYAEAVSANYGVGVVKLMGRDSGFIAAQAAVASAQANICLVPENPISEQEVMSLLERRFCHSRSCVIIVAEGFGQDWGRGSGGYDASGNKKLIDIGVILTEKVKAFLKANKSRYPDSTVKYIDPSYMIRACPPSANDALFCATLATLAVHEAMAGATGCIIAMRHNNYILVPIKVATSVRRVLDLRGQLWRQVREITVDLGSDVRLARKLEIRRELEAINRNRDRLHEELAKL
# UniProt P83916, whole entry, looked up: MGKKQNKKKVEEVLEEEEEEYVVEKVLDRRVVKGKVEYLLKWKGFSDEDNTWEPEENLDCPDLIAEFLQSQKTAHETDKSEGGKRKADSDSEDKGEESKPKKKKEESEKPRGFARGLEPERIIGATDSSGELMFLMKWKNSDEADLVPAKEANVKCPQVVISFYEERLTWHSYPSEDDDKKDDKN
# UniProt O95398: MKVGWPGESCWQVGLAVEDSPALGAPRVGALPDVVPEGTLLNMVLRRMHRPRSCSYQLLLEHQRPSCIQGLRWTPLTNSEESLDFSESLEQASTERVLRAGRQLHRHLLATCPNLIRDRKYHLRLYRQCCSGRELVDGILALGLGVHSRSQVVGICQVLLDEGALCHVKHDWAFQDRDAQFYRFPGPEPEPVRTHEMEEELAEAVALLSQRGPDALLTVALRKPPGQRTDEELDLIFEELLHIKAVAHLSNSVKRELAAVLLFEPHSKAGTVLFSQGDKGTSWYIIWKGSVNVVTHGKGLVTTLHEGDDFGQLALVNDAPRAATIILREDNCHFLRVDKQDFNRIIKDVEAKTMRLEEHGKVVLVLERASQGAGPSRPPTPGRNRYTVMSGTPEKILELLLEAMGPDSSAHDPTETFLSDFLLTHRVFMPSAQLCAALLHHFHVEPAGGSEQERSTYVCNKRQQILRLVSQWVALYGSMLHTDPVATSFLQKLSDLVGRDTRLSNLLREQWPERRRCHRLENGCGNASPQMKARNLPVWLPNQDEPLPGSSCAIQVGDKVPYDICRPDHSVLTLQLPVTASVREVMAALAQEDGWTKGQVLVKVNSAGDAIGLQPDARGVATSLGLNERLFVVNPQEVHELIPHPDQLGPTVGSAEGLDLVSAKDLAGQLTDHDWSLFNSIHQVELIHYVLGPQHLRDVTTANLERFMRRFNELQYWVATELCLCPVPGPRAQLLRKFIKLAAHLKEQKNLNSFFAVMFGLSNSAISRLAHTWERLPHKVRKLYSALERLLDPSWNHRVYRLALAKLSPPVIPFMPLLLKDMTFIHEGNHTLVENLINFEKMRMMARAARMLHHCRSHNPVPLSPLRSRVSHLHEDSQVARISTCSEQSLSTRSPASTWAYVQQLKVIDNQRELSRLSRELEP
# Inconclusive means that the source gave no clear call. Such entries were picked first, then a sample of the others. For some assays here: Potencies beside an inconclusive call are fits to weak or partial responses and may not hold up. Active and inactive are the calls of the source. Unless noted, calls follow the shape of the dose curve; as a rule, active = well fitted curve in the direction sought with a large enough effect; inconclusive = small, poorly fitted or top-dose-only effect, or another doubt; inactive = no such curve, though single readings can be large; an effect the other way counts as inactive or inconclusive.
# Tests used:
# [1] = Quantitative High-Throughput drug screen in 47 multiple myeloma cell lines against the NCATS MIPE library collection: FR4_PLB cell viability assay (AID 1918924; also: potency is read from the fitted curve at half-maximal effect; nearly all actives have a fitted effect of over 35% in size); conditions: FR4_PLB myeloma cells viability, CellTiter-Glo ATP, 48 h; series mostly up to 45.8 µM
# In short: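 Primary qHTS used for cherry-picking: cells at 500/well, library compounds for 48 h (37C, 5% CO2), luminescent ATP assay.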
# [2] = target: Endonuclease 4 (Escherichia coli (strain K12)) (UniProt P0A6C1); test: Counterscreen for APE1 Inhibitors: qHTS Validation Assay for Inhibitors of Endonuclease IV (AID 1708); also: potency is read from the fitted curve at half-maximal effect; conditions: E. coli endonuclease IV, DNA cleavage fluorescence; series mostly up to 57.1 µM
# In short: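 Enzymatic AP-site incision assay using a double-stranded THF substrate labelled with TAMRA and BHQ-2; released fluorescence signals activity. Enzyme 2 nM, substrate 50 nM, 15 min compound preincubation.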
# [3] = qHTS for differential inhibitors of proliferation of Plasmodium falciparum line 3D7 (AID 1876); also: potency is read from the fitted curve at half-maximal effect; conditions: P. falciparum 3D7 proliferation inhibition; series mostly up to 28.7 µM
# [4] = qHTS for differential inhibitors of proliferation of Plasmodium falciparum line D10 (AID 1877); conditions: series mostly up to 28.7 µM;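 also: potency is read from the fitted curve at half-maximal effect; parasites grown with compound for 72 h before DNA staining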
# [5] = qHTS for differential inhibitors of proliferation of Plasmodium falciparum line Dd2 (AID 1882); conditions: Potency: Plasmodium falciparum Dd2 proliferation inhibition; series mostly up to 28.7 µM; also: potency is read from the fitted curve at half-maximal effect; nearly all actives have a fitted effect of over 65% in size
# In short: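 SYBR Green I DNA fluorescence read-out, ex 485/em 535 nm. Signals were normalized to 0.29 uM artemisinin and DMSO wells, then corrected using vehicle-only plates flanking each stack. Parasite growth ran 72 h in erythrocytes before lysis.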
# [6] = qHTS for differential inhibitors of proliferation of Plasmodium falciparum line W2 (AID 1883); conditions: Potency: Plasmodium falciparum W2 proliferation inhibition; series mostly up to 28.7 µM;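 also: potency is read from the fitted curve at half-maximal effect; parasites grown with compound for 72 h before lysis and staining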
# [7] = target: RecQ-like DNA helicase BLM (Homo sapiens) (UniProt P54132); test: qHTS Validation Assay for Inhibitors of Bloom's syndrome helicase (BLM) (AID 2364); conditions: BLM helicase DNA unwinding, fluorescence, in vitro; series mostly up to 57.1 µM;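 also: plate controls were DMSO vehicle for no effect and enzyme-free control for full effect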
# In short: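 Forked 20-bp duplex substrate (200 nM, TAMRA/BHQ-2) plus 2 mM ATP added after 15 min compound preincubation with 50 nM enzyme, pH 8.0, poly(dI-dC) 2.5 ug/ml. Strand separation followed by fluorescence (525/598 nm) over 2 h, normalized to enzyme-free and DMSO controls.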
# [8] = Cytometric Cell-Based qHTS for Inhibitors of the mTORC1 Signaling Pathway in MEF (Tsc2-/-, p53-/-) Cells (AID 2660); conditions: mTORC1 pathway cytometry; series mostly up to 38.3 µM; also: potency is read from the fitted curve at half-maximal effect
# In short: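 Cells are plated, treated with compound for 24 hrs at 37 degree Celsius, then fixed, blocked and immunostained for phospho-rpS6 Ser235/236. Propidium iodide counterstain follows. Per-well % positive cells is derived from the PI-normalized phospho-S6 signal.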
# [9] = High Content Imaging Cell-Based qHTS for Inhibitors of the mTORC1 Signaling Pathway in MEF (Tsc2-/-, p53-/-) Cells (AID 2666); conditions: series mostly up to 38.3 µM;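 also: percent of cells scored positive for phospho-rpS6 Ser235/236 immunostaining by imaging; potency is read from the fitted curve at half-maximal effect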
# In short: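 Cells were plated, dosed with compound after 24 hrs, and incubated another 24 hrs at 37 degree Celsius. Fixed cells were immunostained for phospho-rpS6 Ser235/236 and counterstained, and the normalized signal was scored as % active cells against rapamycin and DMSO controls.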
# [10] = Cytometry Cell-Based qHTS for Inhibitors of the mTORC1 Signaling Pathway in MEF cells (AID 2668); conditions: mTORC1 pathway readout; series mostly up to 38.3 µM; also: potency is read from the fitted curve at half-maximal effect
# In short: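 WT MEFs (Tsc2-/-, p53-/- stably re-expressing WT Tsc2) in DMEM + 10% FBS received compounds 24 hrs after plating, for 24 hrs at 37 degree Celsius. Fixed cells stained with Alexa-488 anti-phospho-rpS6 Ser235/236 and propidium iodide; laser-scanning cytometry read-out.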
# [11] = Validation screen for small molecules that induce DNA re-replication in MCF 10A normal breast cells (AID 463097); conditions: MCF 10A cells, DNA re-replication phenotype imaging; series mostly up to 46.1 µM; also: potency is read from the fitted curve at half-maximal effect; nearly all actives have a fitted effect of over 60% in size
# In short: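 Readout: Hoechst nuclear fluorescence intensity, 405 ex / 500-530 em, by scanning plate imager; re-replication scored as increase in nuclei with elevated DNA content. Cells exposed to compound 48 hr, 37 C, 5% CO2 beforehand.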
# [12] = target: ATP-dependent 6-phosphofructokinase (Trypanosoma brucei brucei) (UniProt O15648); test: qHTS Validation Assay to Find Inhibitors of T. brucei phosphofructokinase (AID 485368); also: potency is read from the fitted curve at half-maximal effect; conditions: T. brucei PFK enzyme assay, qHTS 7-point titration; series mostly up to 57.5 µM
# In short: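 Enzyme reaction in triethanolamine buffer pH 8.0 with 5 mM MgCl2, 0.01% Tween20 and 0.1% BSA; PFK 1.25 nM, F6P 0.5 mM, ATP 0.1 mM, 45 min RT. ADP quantified by ADP-Glo.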
# [13] = Quantitative high throughput screen for delayed death inhibitors of the malarial parasite plastid, 96 hour incubation (AID 488745); conditions: Plasmodium falciparum growth; series mostly up to 28.7 µM; also: potency is read from the fitted curve at half-maximal effect; nearly all actives have a fitted effect of over 70% in size
# In short: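 P. falciparum carrying an integrated firefly luciferase reporter, grown in erythrocytes (2% hematocrit, 0.1% parasitemia final) in RPMI 1640/0.5% Albumax, was exposed to compound for 96 h (two generations) at 37 C, 5% CO2. Luminescence decrease indicated growth inhibition.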
# [14] = Quantitative high throughput screen for delayed death inhibitors of the malarial parasite plastid, 48 hour incubation (AID 488752); conditions: Plasmodium falciparum growth; series mostly up to 28.7 µM; also: potency is read from the fitted curve at half-maximal effect; nearly all actives have a fitted effect of over 65% in size
# In short: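 Erythrocytes infected with P. falciparum carrying an integrated firefly luciferase reporter (2% hematocrit, 0.1% parasitemia final) were exposed to compounds in RPMI 1640/0.5% Albumax for 48 h at 37 C, 5% CO2. Growth inhibition was scored as reduced luminescence.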
# [15] = target: Chromobox protein homolog 1 (Homo sapiens) (UniProt P83916); test: qHTS Validation Assay for Inhibitors of HP1-beta Chromodomain Interactions with Methylated Histone Tails (AID 488953); conditions: HP1-beta chromodomain / methylated histone peptide binding assay; series mostly up to 114 µM; also: potency is read from the fitted curve at half-maximal effect; nearly all actives have a fitted effect of over 50% in size
# In short: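 HP1-beta (50 nM) was preincubated 30 min at room temperature with biotinylated H3(1-18)K9me3 peptide (50 nM) in PBS pH 7.4, 0.01% Tween-20, then with compounds 30 min. AlphaScreen signal was read after streptavidin donor/nickel chelate acceptor beads (10 ug/mL final).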
# [16] = Natriuretic polypeptide receptor (hNpr1) antagonism - Pilot counterscreen GloSensor control cell line (AID 1347045; calls by dose curve; also: potency is read from the fitted curve at half-maximal effect); conditions: HEK293 cGMP GloSensor cells, SNP-stimulated luminescence, 20 min; series mostly up to 38.3 µM
# In short: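 HEK293 cells carrying the GloSensor cGMP sensor (GIP/pGS-40F) were loaded with 2% GloSensor reagent for 2 h, exposed to compounds for 30 min, and then stimulated with 50 uM sodium nitroprusside for 20 min at room temperature.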
# [17] = target: Rap guanine nucleotide exchange factor 3 (Homo sapiens) (UniProt O95398); test: Confirmatory qHTS for antagonist of cAMP-regulated guanine nucleotide exchange factor 3 (EPAC1) (AID 1645880); conditions: EPAC1 Rap1B-BODIPY-GDP exchange, fluorescence; series mostly up to 115 µM; also: potency is read from the fitted curve at half-maximal effect; nearly all actives have a fitted effect of over 55% in size
# In short: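 Nucleotide exchange uses 100 nM EPAC1, 250 nM RAP1B-BODIPY-GDP and 50 uM GDP, with compounds in a concentration-titration series. After 5 min at room temperature, fluorescence (480 nm ex/540 nm em) is read every 5 min for 30 min. Data are normalized to control ATA and DMSO.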
# [18] = target: ATP-dependent 6-phosphofructokinase (Trypanosoma brucei brucei) (UniProt O15648); test: qHTS Assay to Find Inhibitors of T. brucei phosphofructokinase: hit validation (AID 492961); also: potency is read from the fitted curve at half-maximal effect; conditions: T. brucei PFK, ADP-Glo luminescence; series mostly up to 51.4 µM
# In short: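 In this biochemical qHTS validation, titrated compounds were tested against 1.25 nM PFK with 0.1 mM ATP and 0.5 mM F6P. Percent activity came from controls lacking or containing enzyme.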
# [19] = qHTS Assay for Identifying Gametocytocidal Compounds (AID 743244); also: potency is read from the fitted curve at half-maximal effect;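 as to max response: % is scaled to controls: 0 for no effect and ±100 for the full control effect; actives lower the fluorescent signal which means gametocytes are killed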; conditions: P. falciparum 3D7 stage III-V gametocytes, alamarBlue, 72 h; max response: active compounds read low
# In short: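 Stage III–V gametocytes of P. falciparum 3D7 were seeded at 20,000 cells/well onto pre-dispensed compounds. After 72 h, 37 °C, 5% CO2, alamarBlue was added for another 24 h.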
# [20] = tested on: Zika virus NS2B-NS3 protease (linked); test: 384 well plate NINDS AMC confirmatory qHTS for Zika virus inhibitors (AID 1347163); conditions: Recombinant NS2B-NS3 protease, Ac-VKTGKR-AMC fluorescence; series mostly up to 100 µM; also: nearly all actives have a fitted effect of over 50% in size; also: potency is read from the fitted curve at half-maximal effect
# In short: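 Linked protease 5/30/60 nM final; cpds up to 1 mM final, ~15 min preinc. Substrate Ac-VKTGKR-AMC 30 microM final. RT, dark, 25 min; FI ex 355/em 460; normalized to no-enzyme/no-inhibitor ctrls.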
smiles,measurement,setting,value
CC(C)c1cc(C(=O)N2Cc3ccc(CN4CCN(C)CC4)cc3C2)c(O)cc1O,Potency,[1],active: 0.296 µM
OCCN1CCN(CC/C=C2/c3ccccc3Sc3ccc(C(F)(F)F)cc32)CC1,Potency,[2],"inconclusive: 15.8 µM [inhibitor, partial curve, poor fit]"
same,Potency,[3],active: 2.51 µM
same,Potency,[4],active: 12.6 µM
same,Potency,[5],active: 7.94 µM
same,Potency,[6],active: 1.58 µM
same,Potency,[7],inactive
same,Potency,[8],"inconclusive: 16.5 µM [falling, single point]"
same,Potency,[9],"inconclusive: 26.1 µM [falling, single point]"
same,Potency,[10],"inconclusive: 14.7 µM [falling, single point]"
same,Potency,[11],active: 12.6 µM
same,Potency,[12],"inconclusive: 37.9 µM [falling, single point]"
same,Potency,[13],active: 6.57 µM
same,Potency,[14],active: 8.28 µM
same,Potency,[15],active: 35.5 µM
same,Potency,[16],"inconclusive: 18.5 µM [inhibitor, single point]"
same,Potency,[17],"inconclusive: 37.9 µM [inhibitor, partial curve, poor fit]"
O=C(CCN1CCC(c2ccccc2)C1)c1ccc2c(c1)OCCO2 (stereo not drawn),Potency,[18],"inconclusive: 39.8 µM [falling, partial curve, poor fit]"
same,Potency,[19],"inconclusive: 35.5 µM [inhibitor, single point]"
Cc1cccc(C)c1NC(=O)CN1CCCC1,max response,[19],inactive: 20.5%
Cc1cc(C)c2c(c1)C(N(Cc1cc(C(F)(F)F)cc(C(F)(F)F)c1)c1nnn(C)n1)CCCN2CC1CCC(C(=O)O)CC1 (stereo not drawn),Potency,[20],"inconclusive: 3.16 µM [inhibitor, full curve, poor fit]"
O=C(N/N=C/c1ccccc1O)c1ccncc1,Potency,[18],"inconclusive: 28.2 µM [activator, partial curve, poor fit]"
CC#C[C@@H](CC(=O)O)c1ccc(OCc2cccc(-c3ccc(C(F)(F)F)cc3)c2)cc1,Potency,[20],inactive

# Reformatted bar-delimited: entries from further up.
smiles | measurement | setting | value
OCCN1CCN(CC/C=C2/c3ccccc3Sc3ccc(C(F)(F)F)cc32)CC1 | Potency | [2] | inconclusive: 15.8 µM [inhibitor, partial curve, poor fit]
same | Potency | [3] | active: 2.51 µM
same | Potency | [4] | active: 12.6 µM
same | Potency | [5] | active: 7.94 µM
same | Potency | [6] | active: 1.58 µM
